No constants are given. Whether binding was seen depends on the method and setting. Binding calls can cover weak binding; strength is not graded here.

The experiment deals with Lachancea thermotolerans Pds5 (construct M-35-1221-LHHHHHH) (Lachancea thermotolerans). The experiment is described as follows: crystal structure; co-crystals of LtPds5 with synthetic LtScc1 peptide (121-143); molecular replacement with fragments of the apo structure, 3.6 Å; two further SeMet SAD datasets with SeMet-substituted peptides; both purified.
LTNPSQMLLQDAVTEREVLLVPG (selenomethionine at 127) [L. thermotolerans Scc1 peptide 121-143 (Y127SeMet)]: the binding entry is listed as “binds”.

For the molecule LTNPSQYLLQDAVTEREVLLVPG [L. thermotolerans Scc1 peptide 121-143], the binding result is on record as “binds”.

With LTNPSQYMLQDAVTEREVLLVPG (selenomethionine at 128) [L. thermotolerans Scc1 peptide 121-143 (L128SeMet)], the binding result is recorded as “binds”.

(Values after article PMC4793087.)
